For 62 compounds, AC50 results are on record in PubChem BioAssay AID493014 (National Center for Advancing Translational Sciences (NCATS), 2011).

A word on the AC50: it is the concentration giving half of the maximal activity seen.

The assay is described as follows: qHTS Assay to Find Inhibitors of Chronic Active B-Cell Receptor Signaling. The conditions noted are these: ABC-DLBCL IkBa-CBG/CBR reporter, luminescence ratio (green luciferase fused to IkBa over red control in TMD8 lymphoma cells), 4 h. An outline of the steps: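 Compounds up to 46 uM were incubated four hours with TMD8 cells whose green CBG68 luciferase is fused to IkappaBalpha; red CBR luminescence normalised the signal, and concentration-effect curves were fitted to fusion, red and ratio data.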
(In general: In qHTS, concentration-response curves come from the screen itself.)

[1] abbreviates: measured here: CBR red luminescence, cell number.
[2] abbreviates: measured here: IkBa-CBG green luminescence.

Structures are written as SMILES. Some of the results follow. Shown are side measurements of this screen, not its main read-out; they come without a call. The list favours compounds with an active or inconclusive main result. Words in brackets tell the shape of the fitted curve; partial curves, single points and poor fits give uncertain potencies.

Take `O=C(/C=C/c1cccc(Oc2ccccc2)c1)N1CCOCC1`: the AC50 under setting [1] is 35.5 µM [rising, single point]. Turning to `O=C(Cn1ccc([N+](=O)[O-])n1)c1ccccc1`, the AC50 under setting [1] is 1.26 µM [rising, full curve].

`O=C(Nc1nnc(SCc2ccc(F)cc2)s1)c1ccc2ncsc2c1`: under setting [1], the AC50 is 8.2 µM [falling, partial curve]. On to `COc1ccc(C(=O)Nc2ccc(OCC(F)(F)C(F)F)c(C(F)(F)F)c2)cc1OC`, for which, under setting [1], the AC50 was 17.8 µM [falling, single point]. Turning to `CSC1=C(C#N)C2(CCCC2)C(C#N)=C(N)N1`, under setting [1], the AC50 is 0.562 µM [falling, full curve, poor fit]. As for `COc1ccc(C(=O)Nc2nc3c(s2)CCCC3)cc1S(=O)(=O)N1CCCc2ccccc21`, the half-maximal activity concentration (AC50) under setting [1] was 10.3 µM [falling, partial curve]. Still for that read-out and setting: in the case of `COc1ccc(-c2nn(-c3ccccc3)cc2C(=O)NC2CC2)cc1` it was 6.51 µM [rising, partial curve]; in that of `COc1ccc(C(=O)O)cc1NC(=S)NC(=O)CSc1ccc(Cl)cc1`, 7.94 µM [falling, partial curve, poor fit]; in that of `CCN(CC)CCN(C(=O)c1ccc(S(=O)(=O)N(C)C2CCCCC2)cc1)c1nc2c(C)cccc2s1`, 11.2 µM [falling, partial curve, poor fit]. Still for that read-out and setting: in the case of `C#CCOCCOCCOCCNc1nc(N2CCN(C(=O)[C@H]([C@@H](C)CC)n3cc([C@@H](N)Cc4ccc(O)cc4)nn3)CC2)nc(N2CCN(C(=O)[C@H](Cc3ccc(O)cc3)n3cc([C@@H](N)C(C)CC)nn3)CC2)n1` (some centres undefined) it was 1.12 µM [rising, partial curve, poor fit]. Regarding `CCCSc1nnc(Sc2nnnn2-c2ccccc2)s1`, under setting [2], the half-maximal activity concentration (AC50) is 14.6 µM [falling, partial curve].

Turning to `O=c1[nH][nH]c(=S)n1-c1ccccc1C(F)(F)F`, under setting [1], the AC50 is 35.5 µM [rising, single point]. The same measure, in the same setting: in the case of `O=C(COc1ccccc1)NC1CCN(Cc2ccccc2)CC1` it was 1.3 µM [falling, partial curve, poor fit]; in that of `COc1ccc(N=Cc2c(O)[nH]c3ccccc23)cc1`, 22.4 µM [falling, single point]. Still for that read-out and setting: in the case of `COc1ccc(CCNC(=O)c2cc(S(=O)(=O)N(C)c3ccccc3)ccc2Cl)cc1` it was 29.1 µM [falling, single point]; in that of `CC(=O)c1ccccc1NC(=O)CSc1nnc2ccccn12`, 6.51 µM [falling, partial curve, poor fit]; in that of `COc1cc(NC(=S)NC(=O)c2ccccc2C)ccc1NC(=O)c1cccs1`, 3.26 µM [falling, partial curve, poor fit]. On the same count and under the same terms, the same measure for `COc1ccc(-c2nn(-c3ccccc3)cc2CN2CCCO2)c(F)c1`: 0.112 µM [rising, full curve, poor fit]; for `Cc1ccsc1C(=O)OCc1nc2ccsc2c(=O)[nH]1`: 18.4 µM [falling, single point]; for `Cc1cccc(/C=N/NC(=O)c2ccc(F)cc2)n1`: 22.4 µM [falling, single point]. For `O=C(O)CCCC(=O)Nc1ccccc1Oc1ccccc1`, under setting [1], the AC50 is 12.6 µM [falling, partial curve, poor fit]. Same read-out and setting: the same measure for `OC(COc1ccc2c(c1)OCO2)CN1CCN(c2ccccc2)CC1` (centres undefined): 1.26 µM [falling, full curve, poor fit]. Same read-out and setting: in the case of `Cc1cc(OCC(=O)N(C)C2CCCCC2)cc(C)c1Cl` it was 2.24 µM [rising, full curve, poor fit].

In the case of `Cc1c(NS(=O)(=O)c2ccc3c(c2)n(C)c(=O)n3C)c(=O)n(-c2ccccc2)n1C`, the AC50 under setting [1] was 22.4 µM [rising, single point].

Turning to `COc1ccc(/C=N/NC(=O)c2cccc(NC(=O)c3ccc(Cl)cc3)c2)c(OC)c1`, under setting [1], the AC50 was 16.4 µM [falling, partial curve, poor fit].

As for `CC/C(C)=N\Nc1nc(-c2cc3cc(OC)ccc3oc2=O)cs1`, the AC50 under setting [2] was 35.5 µM [rising, partial curve, poor fit]. `CC(=O)Nc1ccc(NC(=O)CSc2nnc3ccc(-c4ccccn4)nn23)cc1`: under setting [1], the AC50 is 18.4 µM [falling, partial curve, poor fit]. The same measure, in the same setting: the same measure for `COc1cc2ccccc2cc1C(=O)Nc1ccc(O)cc1`: 4.47 µM [falling, partial curve, poor fit]; for `O=C(CN1CCc2ccccc21)NN1CC(=O)N(c2ccc(Cl)cc2)CC1=O`: 0.398 µM [rising, full curve, poor fit]. Same read-out and setting: in the case of `CCC1COCCS(=O)(=O)N1Cc1ccc(Cl)cc1` (centres undefined) it was 25.1 µM [falling, single point]; in that of `Cc1ccc(C(C2=C(O)CC(C)(C)CC2=O)C2C(=O)CC(C)(C)CC2=O)s1` (centres undefined), 31.6 µM [rising, single point]. Take `O=C(Nc1nc(-c2ccc(-c3ccccc3)cc2)cs1)C1=COCCO1`: the AC50 under setting [1] was 0.184 µM [falling, full curve]. Same read-out and setting: the same measure for `CCCn1nc(NC(=O)c2ccccn2)c2cc3cc(C)ccc3nc21`: 2.91 µM [falling, full curve]; for `N#CC1=C(N)N(c2ccccc2)C2=C(C(=O)CCC2)C1c1ccccc1` (centres undefined): 4.11 µM [falling, full curve]. On to `CCCCn1c(=N)n(CC(O)COc2ccccc2)c2ccccc21` (centres undefined), for which, under setting [1], the AC50 is 22.4 µM [falling, single point]. `CNc1nc(Sc2ccccc2)cc(C(F)(F)F)n1`: under setting [1], the AC50 is 17.8 µM [rising, partial curve, poor fit]. On to `Nn1c(SCC(=O)NCC2CCCO2)nnc1-c1ccco1` (centres undefined), for which the AC50 under setting [1] was 0.146 µM [rising, full curve, poor fit].

Consider `Cc1ccc(NC(=S)NC(=O)C2CCCCC2)c(Br)c1`, for which, under setting [1], the AC50 was 11.6 µM [rising, partial curve, poor fit]. As for `CO/N=C(\C(=O)O)c1csc(NN=C(C)C)n1`, the AC50 under setting [1] was 6.31 µM [rising, single point]. On the same count and under the same terms, in the case of `O=C(O)CCCC(=O)Nc1nc(-c2ccccc2)cs1` it was 0.794 µM [falling, full curve]; in that of `C#CCOCCOCCOCCNc1nc(N2CCN(C(=O)CCCCCCCCCCNC(=O)Cn3cc(CCCCCN)nn3)CC2)nc(N2CCN(C(=O)CCCCCCCCCCNC(=O)[C@H]([C@@H](C)CC)n3cc(CCCCN=C(N)N)nn3)CC2)n1`, 2.06 µM [rising, partial curve]. The same measure, in the same setting: in the case of `COc1ccc(OC)c2[nH]c(=O)c(CCNC(=S)NC(C)(C)C)cc12` it was 5.62 µM [rising, single point]. Consider `O=C(N/N=C/c1ccoc1)c1ccccc1Br`, for which the AC50 under setting [1] is 8.91 µM [falling, partial curve].

On to `Cc1noc(C)c1CSCC(=O)Nc1nc2c(F)cc(F)cc2s1`, for which, under setting [1], the AC50 was 16.4 µM [falling, partial curve]. Regarding `CN(Cc1ccc2nonc2c1)Cc1nc(CC2CC2)no1`, the concentration at half-maximal activity (AC50) under setting [1] is 20 µM [falling, single point]. Take `COc1cc(/C=C2\SC(=S)N(CCCCC(=O)O)C2=O)ccc1OS(=O)(=O)c1ccc(C)cc1`: the AC50 is 20.6 µM [falling, single point] under setting [1] and 10.3 µM [rising, partial curve, poor fit] under setting [2].

Turning to `O=C(COc1ccc(Cl)cc1Cl)N1CCNC1=O`, the AC50 under setting [1] was 6.51 µM [rising, single point]. In the case of `Clc1ccc(-c2nnc(-c3ccccc3)c(N3CCSCC3)n2)cc1`, the half-maximal activity concentration (AC50) under setting [1] was 1.78 µM [falling, full curve]. Still for that read-out and setting: the same measure for `O=C(OCCCCN1C(=O)c2ccccc2C1=O)c1ccc(S(=O)(=O)N2CCCC2)cc1`: 5.01 µM [falling, full curve, poor fit]; for `C=CCC(=O)OCC(=O)Nc1ccc(Oc2ccccc2)cc1`: 11.2 µM [falling, partial curve, poor fit].

As for `COCCn1c(C)cc(C2=NNC(=NC3CC3)SC2)c1C`, under setting [1], the AC50 was 3.16 µM [rising, full curve, poor fit].

In the case of `COc1cc(OC)c(C2=NOC(C(=O)Nc3c(C)n(C)n(-c4ccccc4)c3=O)C2)cc1Cl` (centres undefined), under setting [1], the AC50 is 10 µM [falling, partial curve, poor fit]. Still for that read-out and setting: in the case of `COC(=O)C1=C(C)N(Cc2ccccc2)C(=NCc2ccccc2)N[C@H]1c1ccccc1` it was 22.4 µM [falling, single point]; in that of `CC1CCC2(CC1)NC(=O)c1ccccc1O2` (centres undefined), 7.31 µM [falling, single point]. Take `CC(C)(C)c1ccc(NC(=O)c2ccccc2)c([N+](=O)[O-])c1`: the AC50 under setting [1] was 12.6 µM [rising, partial curve, poor fit].

`CCCc1nc(SCC(=O)NC2CCCC2)c2ccccc2n1`: under setting [1], the AC50 was 25.1 µM [falling, single point]. Regarding `CCCN1CCN(C(c2cc3cc(OCC)ccc3[nH]c2=O)c2nnnn2C2CCCCC2)CC1` (centres undefined), under setting [1], the AC50 was 14.1 µM [rising, partial curve, poor fit].

As to `Nc1c(C(=O)NCc2ccc3c(c2)OCO3)c2nc3ccccc3nc2n1CCCN1CCOCC1`, the AC50 under setting [1] is 22.4 µM [falling, partial curve, poor fit]. Consider `CC(=O)N1CCc2cc(S(=O)(=O)NCCC(=O)Nc3cc(C)cc(C)c3)ccc21`, for which the AC50 under setting [1] is 29.1 µM [rising, single point]. Consider `COc1cccc2cc(-c3ccccc3)c(=O)oc12`, for which the AC50 was 1 µM [falling, partial curve, poor fit] under setting [1] and 1.41 µM [rising, full curve] under setting [2]. Turning to `O=C(NCCc1ccc(F)cc1)c1n[nH]c2ccccc12`, the AC50 under setting [1] was 5.62 µM [falling, partial curve]. The same measure, in the same setting: the same measure for `COc1ccc(NC(=O)C2C3C=CC(O3)C2C(=O)O)cc1` (centres undefined): 4.47 µM [rising, full curve, poor fit].
